Source: article PMC8187744
No constants are given. Whether binding was seen depends on the method and setting. Binding seen in cells or lysates may run through a third protein. Some binding calls cover weakened binding; strength is not graded here. Each block holds one substance with its values, some of them ahead of it.

Chains of the proteins cited; added tags and fusions are not shown. Lines headed by an entry give the natural chain unless they say otherwise; changes in a name come on top. A line that says so, or that is headed by a name, gives the form on record, which may keep a tag or linker. Residues count along the entry.
UniProt P31749: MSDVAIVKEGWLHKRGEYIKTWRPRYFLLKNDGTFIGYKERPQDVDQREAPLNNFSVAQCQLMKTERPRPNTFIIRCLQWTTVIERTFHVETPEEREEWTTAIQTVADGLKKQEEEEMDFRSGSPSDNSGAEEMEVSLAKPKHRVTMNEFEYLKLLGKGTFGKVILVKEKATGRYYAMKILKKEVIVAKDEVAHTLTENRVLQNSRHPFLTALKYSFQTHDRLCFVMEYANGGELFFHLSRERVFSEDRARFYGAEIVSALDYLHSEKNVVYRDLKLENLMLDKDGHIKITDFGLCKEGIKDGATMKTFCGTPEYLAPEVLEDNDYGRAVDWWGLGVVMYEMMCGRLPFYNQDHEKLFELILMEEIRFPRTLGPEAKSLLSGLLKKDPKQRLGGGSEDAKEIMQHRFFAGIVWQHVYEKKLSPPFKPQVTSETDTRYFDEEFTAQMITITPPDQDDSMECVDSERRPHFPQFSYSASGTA
GST-AKT1-PH: residues 5-108 of P31749
HA-AKT1-KD-R391K (P31749, form named): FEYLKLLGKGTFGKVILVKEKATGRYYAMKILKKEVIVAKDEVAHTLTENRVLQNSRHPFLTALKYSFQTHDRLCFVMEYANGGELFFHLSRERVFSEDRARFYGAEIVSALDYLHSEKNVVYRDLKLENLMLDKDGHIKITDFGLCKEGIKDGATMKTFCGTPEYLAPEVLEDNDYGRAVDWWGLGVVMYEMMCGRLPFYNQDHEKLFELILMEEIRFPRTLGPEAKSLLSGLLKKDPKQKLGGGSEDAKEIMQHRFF
UniProt O14744: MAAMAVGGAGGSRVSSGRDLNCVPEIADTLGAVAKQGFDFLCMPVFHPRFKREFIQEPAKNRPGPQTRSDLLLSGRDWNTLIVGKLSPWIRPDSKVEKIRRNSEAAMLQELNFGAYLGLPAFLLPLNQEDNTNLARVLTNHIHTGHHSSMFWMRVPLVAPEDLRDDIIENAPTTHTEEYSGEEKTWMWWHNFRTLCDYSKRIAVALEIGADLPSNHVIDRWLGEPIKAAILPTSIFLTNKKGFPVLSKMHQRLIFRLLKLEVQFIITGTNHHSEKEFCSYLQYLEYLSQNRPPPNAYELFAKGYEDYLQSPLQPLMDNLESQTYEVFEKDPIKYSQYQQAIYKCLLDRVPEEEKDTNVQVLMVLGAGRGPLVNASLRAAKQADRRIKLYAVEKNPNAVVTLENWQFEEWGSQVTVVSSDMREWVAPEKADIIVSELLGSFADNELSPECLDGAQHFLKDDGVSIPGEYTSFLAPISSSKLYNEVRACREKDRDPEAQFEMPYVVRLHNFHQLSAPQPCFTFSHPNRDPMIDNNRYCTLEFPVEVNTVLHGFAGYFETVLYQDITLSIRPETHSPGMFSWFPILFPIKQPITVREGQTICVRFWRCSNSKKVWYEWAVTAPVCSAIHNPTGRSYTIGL
UniProt P23443: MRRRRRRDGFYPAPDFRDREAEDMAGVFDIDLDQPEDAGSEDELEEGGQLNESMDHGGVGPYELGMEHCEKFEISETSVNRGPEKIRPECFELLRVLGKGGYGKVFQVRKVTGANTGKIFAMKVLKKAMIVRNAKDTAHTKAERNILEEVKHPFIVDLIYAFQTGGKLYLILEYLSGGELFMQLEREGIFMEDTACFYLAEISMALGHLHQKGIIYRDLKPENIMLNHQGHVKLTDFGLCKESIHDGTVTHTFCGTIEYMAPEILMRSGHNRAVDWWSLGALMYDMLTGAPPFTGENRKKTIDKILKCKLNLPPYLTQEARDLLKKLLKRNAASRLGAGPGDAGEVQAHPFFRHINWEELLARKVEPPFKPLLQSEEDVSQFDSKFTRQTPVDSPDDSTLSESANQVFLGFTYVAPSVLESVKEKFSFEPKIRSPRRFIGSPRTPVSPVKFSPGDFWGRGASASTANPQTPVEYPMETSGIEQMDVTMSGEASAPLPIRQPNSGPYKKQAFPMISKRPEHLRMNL
UniProt Q99873: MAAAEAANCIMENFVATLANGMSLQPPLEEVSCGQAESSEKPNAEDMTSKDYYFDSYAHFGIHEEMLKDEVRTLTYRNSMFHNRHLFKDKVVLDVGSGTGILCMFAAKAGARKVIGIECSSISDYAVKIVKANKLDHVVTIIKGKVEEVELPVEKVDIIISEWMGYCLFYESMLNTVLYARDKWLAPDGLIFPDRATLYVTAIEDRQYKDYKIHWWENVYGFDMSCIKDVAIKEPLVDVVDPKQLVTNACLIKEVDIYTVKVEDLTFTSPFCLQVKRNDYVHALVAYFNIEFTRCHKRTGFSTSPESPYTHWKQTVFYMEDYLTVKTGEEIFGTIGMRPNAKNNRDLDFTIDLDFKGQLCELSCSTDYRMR

Tests used:
GST-AKT1-PH (human) = GST-AKT1-PH (human) (UniProt P31749); assay: pull-down; GST pulldown from HEK293 cells transfected with indicated constructs; also with depletion of PRMT5 (Supplementary Fig. 5a)
[1] = target: protein arginine methyltransferase 5 (PRMT5) (human (endogenous in MCF7)) (UniProt O14744); assay: co-IP; endogenous proteins, MCF7 whole cell lysates; PRMT5 immunoprecipitated, IgG as negative control
[2] = target: AKT1 (human (endogenous in MCF7)) (UniProt P31749); assay: co-IP; endogenous proteins, MCF7 whole cell lysates; AKT1 immunoprecipitated, IgG as negative control
[3] = target: AKT1 (human (endogenous in MCF7)) (UniProt P31749); assay: co-IP; MCF7 cells serum-starved, then 100 nM insulin (or EGF) for indicated times; also PI3K inhibitors LY294002 (20 uM), Wortmannin (10 uM), Buparlisib (10 uM) for 12 h before insulin for 30 min
HA-AKT1 (human) = HA-AKT1 (human) (UniProt P31749); assay: co-IP; HEK293T cells transfected with indicated constructs; IB of WCLs and IP products
HA-AKT1-R25C (human) = HA-AKT1-R25C (human) (UniProt P31749); assay: as above

binding (GST-AKT1-PH (human)): binds
Substance: HA-AKT1-KD-R391K (from UniProt P31749 150-408) (domain or fragment)

binding [1]: no binding
Substance: S6K1 (from UniProt P23443 1-525)

binding (GST-AKT1-PH (human)): binds
Substance: HA-AKT1-KD (from UniProt P31749 150-408) (domain or fragment)

binding [2]: no binding
Substance: PRMT1 (from UniProt Q99873 1-371) (enzyme)

binding [2]: binds
binding [3]: binds
Substance: protein arginine methyltransferase 5 (PRMT5) (from UniProt O14744 1-637) (enzyme)

binding [1]: binds
Substance: AKT1 (from UniProt P31749 1-480)

binding (HA-AKT1 (human)): binds
binding (HA-AKT1-R25C (human)): binds
Substance: protein arginine methyltransferase 5 (PRMT5), in cells transfected with AKT constructs (from UniProt O14744 1-637) (enzyme)
